PubChem BioAssay AID652243 – Drosophila RNAi Screening Center | 2013

- Purpose: 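Fly regulators of androgen-dependent reporter output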 (primary screen)
- Cell system: Drosophila S2R+ cells
- Reagent: long dsRNA against Drosophila genes
- Time to read-out: 72 h (48 h, then 24 h hormone)
- Treatment: synthetic androgen R1881 at 10 nM for 24 h
- Read-out: 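Per-well raw luminescence of the androgen-driven firefly reporter and of the Renilla control, two replicates each, without normalisation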
- Scale: firefly reporter light: higher = more light from androgen-responsive reporter; Renilla control light: higher = more constitutive control signal (cell number, transfection)
- Rule for the call: 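Hit when the log firefly-to-Renilla ratio dropped or increased by a fixed fold versus the mean of GFP or LacZ controls across duplicate plates; lowering cut given as 1.5 and as 3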
- Calls: active = hit: reporter lowered or raised; inactive = no hit
The deposit covers about 24,000 reagents; this is an unselected part of those with a known target gene and a result. In the full data, 246 (1%) got an active call. 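Plates not normalised; calls are printed but the firefly/Renilla ratio behind them is not deposited; fold cut for lowering reported inconsistently.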 The raw values are shown without normalisation. A plus sign joins genes that one reagent is predicted to hit. The record does not give: the amount of reagent.

no.	gene knocked down	DRSC id	firefly reporter light, replicate 1	firefly reporter light, replicate 2	Renilla control light, replicate 1	Renilla control light, replicate 2	activity call
1	CG18324	DRSC06721	6.88e5	7.09e5	1.63e6	1.44e6	inactive
2	CG18324	DRSC26600	2.80e5	2.35e5	5.72e5	6.80e5	inactive
3	LpR2	DRSC13726	2.48e5	2.63e5	5.35e5	8.36e5	inactive
4	LpR2	DRSC13728	76466	1.27e5	1.05e5	1.76e5	inactive
5	LpR2	DRSC15655	88449	80311	4.90e5	4.99e5	inactive
6	LpR2	DRSC25588	3.01e5	3.90e5	4.32e5	4.48e5	inactive
7	LysS	DRSC08677	73607	45481	6.14e5	6.84e5	inactive
8	LysS	DRSC27168	3.24e5	2.21e5	6.88e5	6.57e5	inactive
9	Est-6	DRSC11162	1.69e5	1.52e5	1.83e6	1.52e6	inactive
10	Est-6	DRSC39111	9.43e5	6.81e5	1.81e6	1.92e6	inactive
11	CG10587	DRSC11627	2.44e5	2.27e5	1.96e6	1.86e6	inactive
12	neur + asRNA:CR31429	DRSC17013	67313	43565	2.38e5	3.05e5	inactive
13	neur + asRNA:CR31429	DRSC38427	4.70e5	3.82e5	1.25e6	1.45e6	inactive
14	crim	DRSC10573	1.49e6	1.34e6	1.18e6	1.40e6	inactive
15	Pde9	DRSC19746	4.36e5	4.71e5	4.05e6	3.64e6	inactive
16	Pde9	DRSC19874	7.16e5	6.93e5	3.95e6	3.69e6	inactive
17	Pde9	DRSC19875	5.78e5	3.54e5	4.26e6	3.41e6	inactive
18	Pde9	DRSC19876	5.34e5	4.45e5	3.24e6	3.83e6	inactive
19	Pde9	DRSC25304	5.66e5	9.14e5	1.08e6	1.15e6	inactive
20	CG15167	DRSC02468	1.56e5	2.16e5	1.74e6	1.90e6	inactive
21	Khc	DRSC07448	4.30e5	1.24e5	6.07e5	2.80e5	inactive
22	Khc	DRSC24335	4.78e5	2.91e5	3.13e5	2.90e5	inactive

A stretch taken from the entries so far, for reference:
no.	gene knocked down	DRSC id	firefly reporter light, replicate 1	firefly reporter light, replicate 2	Renilla control light, replicate 1	Renilla control light, replicate 2	activity call
14	crim	DRSC10573	1.49e6	1.34e6	1.18e6	1.40e6	inactive
15	Pde9	DRSC19746	4.36e5	4.71e5	4.05e6	3.64e6	inactive
16	Pde9	DRSC19874	7.16e5	6.93e5	3.95e6	3.69e6	inactive
17	Pde9	DRSC19875	5.78e5	3.54e5	4.26e6	3.41e6	inactive
18	Pde9	DRSC19876	5.34e5	4.45e5	3.24e6	3.83e6	inactive
19	Pde9	DRSC25304	5.66e5	9.14e5	1.08e6	1.15e6	inactive

The listing continues.
no.	gene knocked down	DRSC id	firefly reporter light, replicate 1	firefly reporter light, replicate 2	Renilla control light, replicate 1	Renilla control light, replicate 2	activity call
23	Cp110	DRSC20630	63664	65709	4.54e5	4.43e5	inactive
24	Cp110	DRSC21716	5.59e5	4.51e5	2.27e6	2.92e6	inactive
25	B4	DRSC01868	8.73e5	8.01e5	1.96e6	2.02e6	inactive
26	B4	DRSC03175	3.07e5	3.36e5	1.57e6	2.11e6	inactive
27	CG7255	DRSC10790	6.84e5	1.21e6	1.18e6	1.47e6	inactive
28	SmydA-7	DRSC07340	1.17e6	1.09e6	2.31e6	1.72e6	inactive
29	Myb	DRSC20260	53935	61234	5.38e5	4.40e5	inactive
30	Orco	DRSC12358	1.06e5	1.13e5	3.23e6	2.23e6	inactive
31	Orco	DRSC27061	3.51e5	2.63e5	6.40e5	3.22e5	inactive
32	Sdc	DRSC04654	2.88e5	3.46e5	1.71e6	1.62e6	inactive
33	Sdc	DRSC25762	5.76e5	3.19e5	2.27e6	8.86e5	inactive
34	Sdc	DRSC38962	7.55e5	8.92e5	2.17e6	2.05e6	inactive
35	Hmt4-20	DRSC18482	35163	28033	65456	1.14e5	inactive
36	Hmt4-20	DRSC23921	4.30e5	3.70e5	4.51e5	3.19e5	inactive
37	CG15317	DRSC18005	2.46e5	2.39e5	2.63e6	2.64e6	inactive
38	CG15317	DRSC25924	2.73e5	2.97e5	7.12e5	5.99e5	inactive
39	CG15312	DRSC18000	56050	71466	5.86e5	7.04e5	inactive
40	CG15312	DRSC27198	4.55e5	3.13e5	8.32e5	7.22e5	inactive
41	CG32228	DRSC22296	8.85e5	7.82e5	1.49e6	1.23e6	inactive
42	obst-A	DRSC20543	1.05e5	71029	8.11e5	6.89e5	inactive
43	CG8543	DRSC10990	2.38e5	2.38e5	3.77e6	3.30e6	inactive
44	CG8543	DRSC22809	4.83e5	9.02e5	1.03e6	1.82e6	inactive
45	CG8543	DRSC25399	6.31e5	9.22e5	1.34e6	1.52e6	inactive
46	CG1077	DRSC12146	4.51e5	6.02e5	1.26e6	1.47e6	inactive
47	CG1077	DRSC26068	2.49e5	2.56e5	7.21e5	6.51e5	inactive
48	snRNA:U1:82Eb	DRSC37890	7.12e5	5.96e5	1.44e6	1.42e6	inactive
49	Vps8	DRSC09705	84514	1.46e5	1.38e6	2.12e6	inactive
50	CG33721	DRSC37807	8.41e5	5.66e5	2.55e6	1.56e6	inactive
51	CG15864	DRSC15122	1.01e5	1.11e5	2.14e6	2.11e6	inactive
52	CG15864	DRSC25659	5.43e5	4.18e5	6.50e5	6.85e5	inactive
53	Tmtc2	DRSC24987	6.46e5	5.72e5	9.48e5	1.15e6	inactive
54	Vm32E	DRSC03474	2.57e5	2.35e5	1.55e6	1.98e6	inactive
55	Vm32E	DRSC25156	2.49e5	2.45e5	8.04e5	5.17e5	inactive
56	CG30495	DRSC06703	3.20e5	3.01e5	1.82e6	8.53e5	inactive
57	CG30495	DRSC26893	2.83e5	3.09e5	5.68e5	6.46e5	inactive
58	CG13045	DRSC09926	1.15e5	2.20e5	1.08e6	1.70e6	inactive
59	CG13045	DRSC25454	8.31e5	8.34e5	1.61e6	1.39e6	inactive
